This is an account of results in PubChem BioAssay AID226 (DTP/NCI, 2004).

In this assay the test system is B6C3F1 mice, intracerebral ependymoblastoma, median survival T/C. Description: NCI In Vivo Anticancer Drug Screen. Data for tumor model Ependymoblastoma (intracerebral) in B6C3F1 mice. Conditions: T/C endpoint: median survival time, higher T/C = longer survival. How it is done:
The antitumor activity of compounds was measured in mice bearing transplantable tumors. Survival or tumor size were measured and the results are expressed as the measurement made in the treated group (T) divided by the measurement made in the vehicle treated control group (C). The tumor model used in this assay is Ependymoblastoma (intracerebral) in B6C3F1 mice

[1] abbreviates: dose: 64.0 mg/kg/injection, schedule: Q01DX005 (ip), vehicle: saline.
The mark [2] stands for this setting: dose: 128.0 mg/kg/injection, schedule: Q01DX005 (ip), vehicle: saline.
Setting [3] is: dose: 2048.0 mg/kg/injection, schedule: Q01DX001 (ip), vehicle: saline.
The mark [4] stands for this setting: dose: 25.0 mg/kg/injection, schedule: Q01DX005 (ip), vehicle: Klucel (hydroxypropylcellulose) (HPC).
Where [5] appears, read: dose: 50.0 mg/kg/injection, schedule: Q01DX005 (ip), vehicle: Klucel (hydroxypropylcellulose) (HPC).
Setting [6] is: dose: 100.0 mg/kg/injection, schedule: Q01DX005 (ip), vehicle: Klucel (hydroxypropylcellulose) (HPC).
Setting [7] is: dose: 12.5 mg/kg/injection, schedule: Q01DX005 (ip), vehicle: Klucel (hydroxypropylcellulose) (HPC).
Where [8] appears, read: dose: 4.0 mg/kg/injection, schedule: Q01DX005 (ip), vehicle: saline.
[9] abbreviates: dose: 8.0 mg/kg/injection, schedule: Q01DX005 (ip), vehicle: saline.

The structures appear in SMILES notation. The list is a part of this screen's results and no random one: it is rich in T/C values a quarter to a half above the control, in often repeated tests (any T/C) and in doses without a T/C. Other doses and runs of a compound stand elsewhere. T/C: endpoint of the treated group in % of that of the vehicle group. Some entries give survivors of the animals treated and no T/C: the source files T/C as zero there, which appears to mark a toxic dose or a test without result, not a measured value. Some survivor counts are full or nearly so, which does not show that the dose was tolerated: survival well below the control is almost never listed, so the zero probably covers shortened survival too. Counts of survivors are from the toxicity check (mostly the fifth day) where no day follows; animals may have died later. Schedules are NCI's codes, taken here to give the interval after Q, in days (D) or hours (H), and the number of doses after X. Additions like (4×) give the number of equal values in this list. Some entries were tested several times; the results are listed from low to high. Some schedule codes hold Z or #, which are not explained here. For survival time, the PubChem record calls one and a half times the control and up active, and a quarter to a half above the control has no call in these data; cut-offs in other NCI protocols can differ. Some T/C values are followed by the survivors on the day toxicity was checked, most often the fifth; without a count, all were alive then.

With `C[C@@H](CN1CC(=O)NC(=O)C1)N1CC(=O)NC(=O)C1`, the T/C by setting is: (dose: 32.0 mg/kg/injection, schedule: Q01DX005 (ip), vehicle: saline with Tween-80) 126 % of control; (dose: 64.0 mg/kg/injection, schedule: Q01DX005 (ip), vehicle: saline with Tween-80) 129 % of control; under setting [1], 134 % of control; (dose: 64.0 mg/kg/injection, schedule: Q## X006 (ip), vehicle: saline) 135 % of control; under setting [2], 125 % of control; (dose: 128.0 mg/kg/injection, schedule: Q## X006 (ip), vehicle: saline) 142 % of control. The T/C (dose: 256.0 mg/kg/injection, schedule: Q01DX005 (ip), vehicle: water) was 127 % of control [8 of 10 alive]; the T/C (dose: 256.0 mg/kg/injection, schedule: Q## X004 (ip), vehicle: saline) was 135 % of control; the T/C (dose: 256.0 mg/kg/injection, schedule: Q## X006 (ip), vehicle: saline) was 146 % of control; the T/C (dose: 512.0 mg/kg/injection, schedule: Q01DX001 (ip), vehicle: saline) is 125 % of control; the T/C (dose: 512.0 mg/kg/injection, schedule: Q01DX001 (oral), vehicle: saline) was 126 % of control [9 of 10 alive]; the T/C (dose: 512.0 mg/kg/injection, schedule: Q## X004 (ip), vehicle: saline) was 142 % of control. Also, the T/C runs as follows: (dose: 1024.0 mg/kg/injection, schedule: Q01DX001 (ip), vehicle: saline) 128 % of control [9 of 10 alive]; (dose: 1024.0 mg/kg/injection, schedule: Q01DX001 (oral), vehicle: saline) 126 and 128 % of control [9 of 10 alive]; under setting [3], 130 and 136 % of control. Also, the survivor count is, setting by setting: (dose: 64.0 mg/kg/injection, schedule: Q01DX005 (oral), vehicle: saline) 10 of 10; (dose: 128.0 mg/kg/injection, schedule: Q01DX005 (oral), vehicle: saline) 10 of 10; (dose: 256.0 mg/kg/injection, schedule: Q01DX005 (ip), vehicle: saline with Tween-80) 10 of 10; (dose: 256.0 mg/kg/injection, schedule: Q01DX005 (oral), vehicle: saline) 5 of 10 and 10 of 10; (dose: 512.0 mg/kg/injection, schedule: Q01DX005 (ip), vehicle: saline) 9 of 10 and 10 of 10; (dose: 512.0 mg/kg/injection, schedule: Q01DX005 (oral), vehicle: saline) 10 of 10 (2×). For the same molecule, the survivor count is listed as 10 of 10 (dose: 512.0 mg/kg/injection, schedule: Q## X006 (ip), vehicle: saline); 10 of 10 (dose: 1024.0 mg/kg/injection, schedule: Q01DX005 (ip), vehicle: Klucel (hydroxypropylcellulose) (HPC)); 9 of 10 (dose: 1024.0 mg/kg/injection, schedule: Q01DX005 (ip), vehicle: saline with Tween-80); 9 of 10 (dose: 1024.0 mg/kg/injection, schedule: Q01DX005 (oral), vehicle: saline); 10 of 10 (dose: 1024.0 mg/kg/injection, schedule: Q## X004 (ip), vehicle: saline); 5 of 10 under setting [3]. In addition, the survivor count reads like this: (dose: 2048.0 mg/kg/injection, schedule: Q01DX001 (oral), vehicle: saline) 8 of 10; (dose: 2048.0 mg/kg/injection, schedule: Q01DX005 (oral), vehicle: saline) 10 of 10; (dose: 2048.0 mg/kg/injection, schedule: Q## X004 (ip), vehicle: saline) 7 of 10.
Turning to `COc1ccc2c(c1OC(C)=O)-c1cc(O)cc3c1C(C2)N(C(=O)CN(CCCl)CCCl)CC3` (stereo unspecified), the survivor count is 8 of 10 (dose: 25.0 mg/kg/injection, schedule: Q01DX005 (ip), vehicle: saline with Tween-80) and 2 of 10 (dose: 50.0 mg/kg/injection, schedule: Q01DX005 (ip), vehicle: saline with Tween-80).
In the case of `Nc1nc(SCc2ccccc2Cl)c2ncn(C3OC(CO)C(O)C3O)c2n1` (stereo unspecified), the T/C under setting [4] is 131 % of control and the T/C under setting [5] is 144 % of control. The survivor count reads like this: under setting [6], 9 of 10 and 10 of 10; (dose: 200.0 mg/kg/injection, schedule: Q01DX005 (ip), vehicle: Klucel (hydroxypropylcellulose) (HPC)) 10 of 10; (dose: 400.0 mg/kg/injection, schedule: Q01DX005 (ip), vehicle: Klucel (hydroxypropylcellulose) (HPC)) 10 of 10.
For the molecule `CCCN(C)C(=O)N(CCCl)N=O`, the T/C (dose: 15.6 mg/kg/injection, schedule: Q01DX001 (ip), vehicle: saline + alcohol) is 145 % of control. The survivor count (dose: 250.0 mg/kg/injection, schedule: Q01DX001 (ip), vehicle: saline + alcohol) is given as 7 of 10.
As to `O=C(NC1=C(N2CC2)C(=O)C(NC(=O)OCCO)=C(N2CC2)C1=O)OCCO`, the survivor count is, setting by setting: (dose: 0.18 mg/kg/injection, schedule: Q01DX005 (ip), vehicle: saline) 6 of 10; (dose: 0.39 mg/kg/injection, schedule: Q01DX005 (ip), vehicle: saline) 5 of 8; (dose: 0.75 mg/kg/injection, schedule: Q01DX005 (ip), vehicle: saline) 6 of 10.
Take `CCC(=O)OCC1OC(n2cnc3c(=S)nc(N)[nH]c32)C(OC(=O)CC)C1OC(=O)CC` (stereo unspecified): the survivor count is 10 of 10 (dose: 6.25 mg/kg/injection, schedule: Q01DX005 (ip), vehicle: Klucel (hydroxypropylcellulose) (HPC)); 9 of 10 under setting [7]; 9 of 10 and 10 of 10 under setting [4]; 9 of 10 under setting [5]; 9 of 10 under setting [6]. The T/C under setting [7] is 134 % of control.
Take `COc1cc([C@@H]2c3cc4c(cc3[C@@H](OC3OC5CO[C@@H](c6cccs6)OC5C(O)C3O)[C@H]3COC(=O)[C@H]23)OCO4)cc(OC)c1O` (stereo partly specified): the T/C is 135 % of control (dose: 1.0 mg/kg/injection, schedule: Q01DX005 (ip), vehicle: saline); 126 % of control (dose: 4.0 mg/kg/injection, schedule: Q01DX001 (ip), vehicle: saline); 127 % of control (dose: 16.0 mg/kg/injection, schedule: Q01DX001 (oral), vehicle: saline). Moreover, the survivor count is, setting by setting: under setting [8], 10 of 10; under setting [9], 9 of 10; (dose: 16.0 mg/kg/injection, schedule: Q01DX005 (oral), vehicle: saline) 10 of 10; (dose: 32.0 mg/kg/injection, schedule: Q01DX005 (oral), vehicle: saline) 10 of 10; (dose: 128.0 mg/kg/injection, schedule: Q01DX001 (oral), vehicle: saline) 0 of 10.
As for `COc1ccc2c(c1O)-c1cccc3c1[C@@H](C2)N(CCCl)CC3`, the survivor count reads like this: (dose: 2.0 mg/kg/injection, schedule: Q01DX005 (ip), vehicle: Klucel (hydroxypropylcellulose) (HPC)) 10 of 10; under setting [8], 10 of 10; under setting [9], 10 of 10; (dose: 16.0 mg/kg/injection, schedule: Q01DX005 (ip), vehicle: Klucel (hydroxypropylcellulose) (HPC)) 2 of 10; (dose: 16.0 mg/kg/injection, schedule: Q01DX005 (ip), vehicle: saline) 10 of 10; (dose: 32.0 mg/kg/injection, schedule: Q01DX005 (ip), vehicle: Klucel (hydroxypropylcellulose) (HPC)) 0 of 10. Besides, the survivor count is, setting by setting: (dose: 32.0 mg/kg/injection, schedule: Q01DX005 (ip), vehicle: saline) 2 of 10; (dose: 64.0 mg/kg/injection, schedule: Q01DX005 (ip), vehicle: Klucel (hydroxypropylcellulose) (HPC)) 0 of 10; under setting [1], 0 of 10; under setting [2], 0 of 10.
